Some of the results follow.

In this assay the target is T1, OsSMF1 (Oryza sativa, UniProt Q6ZLB0 1-436).
T1 sequence: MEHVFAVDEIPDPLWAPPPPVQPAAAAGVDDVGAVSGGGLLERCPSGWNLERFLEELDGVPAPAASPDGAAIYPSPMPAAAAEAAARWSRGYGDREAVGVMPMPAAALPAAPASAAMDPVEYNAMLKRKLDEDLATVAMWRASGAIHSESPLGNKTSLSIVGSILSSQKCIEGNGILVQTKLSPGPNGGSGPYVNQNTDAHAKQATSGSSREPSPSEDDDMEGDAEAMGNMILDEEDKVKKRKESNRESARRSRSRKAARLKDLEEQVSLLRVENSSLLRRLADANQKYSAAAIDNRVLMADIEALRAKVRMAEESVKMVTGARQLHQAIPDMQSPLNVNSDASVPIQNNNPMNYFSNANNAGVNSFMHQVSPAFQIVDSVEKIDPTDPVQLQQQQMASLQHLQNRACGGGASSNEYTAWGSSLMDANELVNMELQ
Put plainly: protein-binding microarray (RPBM); PBS, 2% BSA, 51.3 ng/ul salmon testes DNA, 50 uM zinc acetate, 200 nM TF, 25 C, 1 h; high values mean tight binding. Particulars: protein: recombinant; tags: N-terminal polyhistidine and DsRed monomer fusion (pET32a); chain copies: 2; label: CyDye5-dUTP incorporated in the synthesized complementary strand; 3' TTTTT single-stranded linker to array surface; dsDNA, one strand shown. In short, it runs like this:
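Transcription factors were each fused at the N-terminus to a polyhistidine tag plus DsRed and expressed in E. coli BL21-CodonPlus before Ni–NTA purification. Binding to a double-stranded custom Agilent array was carried out with 200 nM protein at 25 °C for 1 h in PBS, 2% BSA, salmon testes DNA and 50 µM zinc acetate. The binding signal is per-feature fluorescence intensity, in arbitrary units, on an Axon 4000B scanner.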
Consider “CTTTCAGTTTGTAACCACCGGATGACGCACGGACGGCTCGCGGAGTCACCTAGTGCAG”, for which the binding signal is 4360 fluorescence intensity (a.u.). Under “GTGCTGCGTCCTCCAATGACTACGATTCAACGACGGCAACCGGAGTCACCTAGTGCAG” stands 3240 fluorescence intensity (a.u.); under “CGATGTACATGGACTTCACGATGCAGCCGGGGTCGCAGCTCGGAGTCACCTAGTGCAG”, 3460 fluorescence intensity (a.u.). Consider “CCACGCTAAAATTGGAAGTTTGACTAAAATTAGAAGTTTACGGAGTCACCTAGTGCAG”, for which the binding signal is 60200 fluorescence intensity (a.u.).

For the sequence “TGCAGAATTCCACATCCCCGCTGTATACACCGAGATCAACCGGAGTCACCTAGTGCAG”, the binding signal is 4120 fluorescence intensity (a.u.).

Consider “TTTGGTCGTCAAACAGTGATGACTCTCCTGGCCGCTGTCTCGGAGTCACCTAGTGCAG”, for which the binding signal is 3630 fluorescence intensity (a.u.). For “CACTTGCTTATCTCAATCAACCACGTCATCTCTAATTTTACGGAGTCACCTAGTGCAG”, the binding signal is 18000 fluorescence intensity (a.u.). For “ACGCGAAAGAAGACTGACTCAGATGGAGAACAACGTTTTGCGGAGTCACCTAGTGCAG” the value was 4110 fluorescence intensity (a.u.); for “ACGTGTGCTGACGTACGGGATGACAATTCCAACTTTGCCTCGGAGTCACCTAGTGCAG”, 10700 fluorescence intensity (a.u.). With “CACCGACACCGACCCGCCCAAATTAACGTGGCAAACTCCACGGAGTCACCTAGTGCAG”, the binding signal was 4670 fluorescence intensity (a.u.).

As to “GTGGTAGAGGCGGCGGGGCGGGAGGTCGAACCGGAGCTGACGGAGTCACCTAGTGCAG”, the binding signal is 3140 fluorescence intensity (a.u.). On to “ACGCTGTCACAAGGCACACGTATGCAGAGCCCGAGCGCGACGGAGTCACCTAGTGCAG”, for which the binding signal is 5340 fluorescence intensity (a.u.). For “ATTTTCCTAGGTGGATTGTACCATGATGCGCCACCTGGGACGGAGTCACCTAGTGCAG” the value was 3880 fluorescence intensity (a.u.); for “TTCGAGCAACTCTACCTGGATCCAGACCAACCCCAGTAGACGGAGTCACCTAGTGCAG”, 50400 fluorescence intensity (a.u.); for “CCACAACCCACCACCACGTCTAGGGTTCCGCCGCTCCTCCCGGAGTCACCTAGTGCAG”, 3160 fluorescence intensity (a.u.). Under “CATATATTGGTGTTGTGTGTGGGTGGGTGGGGCGGTGCTTCGGAGTCACCTAGTGCAG” stands 7020 fluorescence intensity (a.u.). Consider “ATTTGCTACCTATAATCTATAACATGTGGTCACTATGCGTCGGAGTCACCTAGTGCAG”, for which the binding signal is 3420 fluorescence intensity (a.u.). For “GCGCCTGGCCAGCCAGAGCACCATGTCTGGTTTTGTATCCCGGAGTCACCTAGTGCAG” the value was 3310 fluorescence intensity (a.u.); for “ACCACCCACCGGTTTCGGTTTCGCCCACCATTGGAGGCGACGGAGTCACCTAGTGCAG”, 3190 fluorescence intensity (a.u.). With “TACAAACATTTCGCTTCCCACCGAGCCAAAATTTCGTCAGCGGAGTCACCTAGTGCAG”, the binding signal was 3670 fluorescence intensity (a.u.).

For the sequence “GACATGAGTCGACGCCTCCGACGTGGTGGAGAGTTGAGCGCGGAGTCACCTAGTGCAG”, the binding signal is 4520 fluorescence intensity (a.u.). Under “TTCCAGTCACGCCTTCTCCGTCCACGTTGCCATTACTTCACGGAGTCACCTAGTGCAG” stands 5030 fluorescence intensity (a.u.); under “GTTCTATTCTAAACCACAATTGAAGCTGACGAATTAAGTTCGGAGTCACCTAGTGCAG”, 3360 fluorescence intensity (a.u.).

For the sequence “GCGGGCGGAGGAGCTCGGGCGTGGGCGGGGAGGGCGGATCCGGAGTCACCTAGTGCAG”, the binding signal is 4310 fluorescence intensity (a.u.).

Take “CCGCACATGTCAAATTCTAATTGGGTAAGGATGTCACACCCGGAGTCACCTAGTGCAG”: the binding signal is 3540 fluorescence intensity (a.u.). For “AAGTTGGCATATGGGCCCCACATGCTGACCCAGTCGGTTGCGGAGTCACCTAGTGCAG” the value was 3150 fluorescence intensity (a.u.); for “CTAGTGACACCAATTTGTAGTGTGTCATCTGCGGCCTAATCGGAGTCACCTAGTGCAG”, 4540 fluorescence intensity (a.u.); for “AAAAGAGAAAATATCATTTGGTGAAATGGTGACGAGTTCCCGGAGTCACCTAGTGCAG”, 3290 fluorescence intensity (a.u.).

As for “GTCATAGACGCGTGTGGACCCCACGTGTCATTGACATATGCGGAGTCACCTAGTGCAG”, the binding signal was 12300 fluorescence intensity (a.u.). Take “GCGGAGGAGGCAAGGAGATCAGGCGGCAGAGGAAAGGGGCCGGAGTCACCTAGTGCAG”: the binding signal was 3280 fluorescence intensity (a.u.). In the case of “GTGTGAGGTTCATGCTGGGCGGTGACGCGACGGCGGAGACCGGAGTCACCTAGTGCAG”, the binding signal is 6730 fluorescence intensity (a.u.).

Consider “CTCTTCTACAAATTGGACTTTGGTTATTTAGCTGGAAACTCGGAGTCACCTAGTGCAG”, for which the binding signal was 3920 fluorescence intensity (a.u.). Regarding “CAACCCCTGCCACCCAACACGTCTCCCTCTCCTTCCCTCTCGGAGTCACCTAGTGCAG”, the binding signal is 3510 fluorescence intensity (a.u.). On to “CCAATTATACTTGCCAATCTGCCGTCACCTCACCTGTTCTCGGAGTCACCTAGTGCAG”, for which the binding signal was 4950 fluorescence intensity (a.u.). Under “CTCGCTATCTGTCCCGGCTGGGTTGGTGACTCACCATCTTCGGAGTCACCTAGTGCAG” stands 19800 fluorescence intensity (a.u.); under “TCTTTCCCCTGCTGAGCGCGACTTCTTAATCATGACGGTGCGGAGTCACCTAGTGCAG”, 4030 fluorescence intensity (a.u.); under “AAGTTAACTAATTATACAGATTGCGTGTAAATTGTGAGACCGGAGTCACCTAGTGCAG”, 3750 fluorescence intensity (a.u.).

For the sequence “TGACTTATATTGTGAAACGGAGGAAGTAGCTGATTGGCGTCGGAGTCACCTAGTGCAG”, the binding signal is 3170 fluorescence intensity (a.u.).

“CCGTTATCTCTCCCGTGATGCGGCGTGGGGCCCACCACCACGGAGTCACCTAGTGCAG”: the binding signal was 4410 fluorescence intensity (a.u.). Turning to “CGAAGTCCAGGCAGGCGGCTCGCAGGAGCAGCTCAGCAGCCGGAGTCACCTAGTGCAG”, the binding signal is 5240 fluorescence intensity (a.u.). For “TAAGGCAAAAGCCAAAATTCAAATATAGTTAAAATTAAAGCGGAGTCACCTAGTGCAG” the value was 7150 fluorescence intensity (a.u.). For “TTGGAGGGATTTGGTTGAGGAATATGTATGACATGTGGTCCGGAGTCACCTAGTGCAG” the value was 3430 fluorescence intensity (a.u.).

The values above are taken from PMC7819943, “Rice protein-binding microarrays: a tool to detect cis-acting elements near promoter regions in rice”.
